PubChem BioAssay AID1259308 | NCATS | 2017
Here is one part, drawn at random, of about 59,000 reagents. Of all reagents, about 1,510 (2.6%) are marked active. 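Calls use total luciferase alone and ignore viability, so some active siRNAs may act by altering cell number.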 Unmarked entries are inactive.

Screen: 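Candidate targets for better recombinant protein yield in mammalian cells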 (primary screen)
Cells: human HEK293 embryonic kidney cells stably expressing firefly luciferase (HEK-CMV-Luc2-Hygro)
Knock-down reagent: single siRNA against human genes, 0.8 pmol siRNA per well
Time to read-out: 72 h
Detection: 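Reporter luminescence and viable-cell signal on separate replicate plates, given as percent of non-targeting control and median/MAD z-scores, plus per-cell luciferase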
Scale: total luciferase, z-score and total luciferase, % of control: higher = more reporter protein produced; luciferase per cell, z-score: higher = more reporter output per viable cell; viable cells, % of control: higher = more viable cells
Active means: 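Active when the median/MAD z-score for overall luciferase is greater than 3; a gene was taken forward for validation with new siRNAs if at least two of its three siRNAs passed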
Meaning of the calls: active = raised luciferase; inactive = no rise

Gene	PubChem SID	total luciferase, z-score	total luciferase, % of control	luciferase per cell, z-score	viable cells, % of control
TYMP (thymidine phosphorylase)	SID160730738	-0.302	75.9	-0.667	101
TYMP (thymidine phosphorylase)	SID160757810	-0.509	71.8	-1.26	112
TYMP (thymidine phosphorylase)	SID160757831	0.275	87.4	-0.24	104
LEPR (leptin receptor)	SID160731201	-0.67	68.6	-0.897	97
LEPR (leptin receptor)	SID160776572	0.908	99.9	1.31	79.1
LEPR (leptin receptor)	SID160776573	0.386	89.6	-0.423	112
DNAH6 (dynein axonemal heavy chain 6)	SID160763452	0.297	87.8	0.426	87.7
DNAH6 (dynein axonemal heavy chain 6)	SID160763453	-0.515	71.6	-0.228	85
DNAH6 (dynein axonemal heavy chain 6)	SID160763454	-0.527	71.4	-0.144	82.9
RNF135 (ring finger protein 135)	SID160752046	0.788	97.6	0.17	104
RNF135 (ring finger protein 135)	SID160752047	0.122	84.3	0.591	80.6
RNF135 (ring finger protein 135)	SID160752048	0.279	87.4	-0.157	102
LRRC8C (leucine rich repeat containing 8 VRAC subunit C)	SID160751917	-0.0528	80.8	-0.608	106
LRRC8C (leucine rich repeat containing 8 VRAC subunit C)	SID160751918	-0.0027	81.8	-0.382	101
LRRC8C (leucine rich repeat containing 8 VRAC subunit C)	SID160751919	-0.369	74.5	0.00886	83.1
BMS1P1 (BMS1 pseudogene 1)	SID160766859	0.974	101	0.429	101
BMS1P1 (BMS1 pseudogene 1)	SID160766860	-0.209	77.7	-0.675	104
BMS1P1 (BMS1 pseudogene 1)	SID160766861	1.08	103	0.0311	115
LOC440742	SID160767861	1.16	105	0.666	98.5
LOC440742	SID160767862	0.109	84	0.144	90.4
LOC440742	SID160767863	1.72	116	1.84	79.9
SHPK (sedoheptulokinase)	SID160736816	0.781	97.4	2.32	59
SHPK (sedoheptulokinase)	SID160736817	-0.111	79.7	-0.27	95.6
SHPK (sedoheptulokinase)	SID160736818	0.35	88.8	0.00867	99.1
